One compound from PubChem BioAssay AID1835 (Johns Hopkins Ion Channel Center, 2009) can be followed below.

By UniProt entry, the sequences of proteins in these tests, tags left out. Where a name states a change or a piece, a line headed by the entry shows the natural chain unless it says otherwise.
UniProt Q12809: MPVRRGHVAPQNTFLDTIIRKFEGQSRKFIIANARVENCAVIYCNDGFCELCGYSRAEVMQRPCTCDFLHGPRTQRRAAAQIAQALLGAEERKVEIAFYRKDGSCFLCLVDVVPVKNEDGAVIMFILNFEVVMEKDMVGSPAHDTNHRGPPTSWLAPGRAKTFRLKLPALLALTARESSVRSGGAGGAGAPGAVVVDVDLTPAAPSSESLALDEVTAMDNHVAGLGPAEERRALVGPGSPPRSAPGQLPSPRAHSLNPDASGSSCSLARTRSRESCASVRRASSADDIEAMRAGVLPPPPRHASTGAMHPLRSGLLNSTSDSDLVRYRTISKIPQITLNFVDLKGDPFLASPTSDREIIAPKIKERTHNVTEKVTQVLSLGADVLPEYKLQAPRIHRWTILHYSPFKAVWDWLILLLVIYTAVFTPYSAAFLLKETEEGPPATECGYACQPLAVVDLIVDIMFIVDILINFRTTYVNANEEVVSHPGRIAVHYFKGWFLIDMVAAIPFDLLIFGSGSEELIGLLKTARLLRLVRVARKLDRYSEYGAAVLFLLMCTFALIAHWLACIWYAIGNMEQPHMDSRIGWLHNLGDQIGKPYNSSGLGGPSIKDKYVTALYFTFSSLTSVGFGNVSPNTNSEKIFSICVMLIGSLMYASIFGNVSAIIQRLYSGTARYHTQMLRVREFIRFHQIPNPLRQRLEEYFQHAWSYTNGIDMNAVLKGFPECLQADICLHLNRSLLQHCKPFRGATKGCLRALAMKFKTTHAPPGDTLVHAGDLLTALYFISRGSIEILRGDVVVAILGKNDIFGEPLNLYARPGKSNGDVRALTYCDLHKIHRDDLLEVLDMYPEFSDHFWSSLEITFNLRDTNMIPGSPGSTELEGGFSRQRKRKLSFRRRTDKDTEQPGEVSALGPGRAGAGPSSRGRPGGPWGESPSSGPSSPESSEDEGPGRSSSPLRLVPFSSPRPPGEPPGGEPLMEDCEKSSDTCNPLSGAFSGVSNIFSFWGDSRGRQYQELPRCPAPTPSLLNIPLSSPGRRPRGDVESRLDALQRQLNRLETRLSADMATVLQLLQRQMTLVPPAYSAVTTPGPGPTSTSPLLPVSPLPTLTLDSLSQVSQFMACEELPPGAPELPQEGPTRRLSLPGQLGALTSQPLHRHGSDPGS

The entries are a selection whose mix differs from that of the whole data set. Calls of active or inactive are those of the source.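 The calls were made as follows: active = median signal gain over dofetilide-blocked control wells reaching their mean plus 3 SD, so readout 1 at least 0; inactive = the rest.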

This test deals with Voltage-gated inwardly rectifying potassium channel KCNH2 (Homo sapiens) (UniProt Q12809). The test can be described thus: hERG protection against dofetilide inhibition, confirmation, cell-based, thallium flux, duplicate retest, dofetilide IC70 (AID 1835). As to conditions: hERG cell line, FluxOR thallium flux, dofetilide-blocked; at 10 µM; hits give high values. For orientation: Block of hERG is tested as a sign of cardiac risk.
In the case of `CN1C(=O)C(N=Nc2ccccc2C(=O)O)N(C)C1=S` (stereo unspecified), the activity increase over dofetilide control, less the hit threshold was active: 1%.
